Assay results from paper PMC8008631.
These are yes or no findings as the source states them, for the method shown. In cells and extracts the contact can be indirect. Some entries that bind do so weakly or less than the wild type. For part of these data: Sequences can lack the tags named with a protein.

Columns and labels:
[1] = molecular target: T1, RANK-V5 (affinity-tagged full-length RANK) (UniProt Q9Y6Q6); experiment: co-IP; reverse IP: HEK293 cells transiently co-transfected with RANK-V5 and a HER2 form; IP of RANK-V5 with V5 antibody, protein A agarose; HER2 forms detected with 32H2 antibody
T1 sequence: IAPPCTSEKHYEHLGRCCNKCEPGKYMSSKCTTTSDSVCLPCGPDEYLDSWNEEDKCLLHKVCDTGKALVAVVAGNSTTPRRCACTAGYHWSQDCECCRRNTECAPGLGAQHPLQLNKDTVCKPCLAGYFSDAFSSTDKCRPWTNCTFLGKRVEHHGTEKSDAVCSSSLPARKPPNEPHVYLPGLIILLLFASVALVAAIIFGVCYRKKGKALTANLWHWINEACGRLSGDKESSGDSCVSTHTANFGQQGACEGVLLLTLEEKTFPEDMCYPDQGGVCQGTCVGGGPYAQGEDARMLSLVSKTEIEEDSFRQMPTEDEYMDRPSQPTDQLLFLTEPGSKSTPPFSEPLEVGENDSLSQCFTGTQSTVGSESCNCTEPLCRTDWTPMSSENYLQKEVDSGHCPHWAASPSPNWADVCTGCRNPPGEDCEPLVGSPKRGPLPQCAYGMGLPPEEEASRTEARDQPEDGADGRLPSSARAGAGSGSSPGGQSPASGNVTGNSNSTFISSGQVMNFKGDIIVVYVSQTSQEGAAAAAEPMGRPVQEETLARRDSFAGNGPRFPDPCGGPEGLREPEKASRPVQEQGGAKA

[2] = molecular target: FLAG-HER2 (affinity-tagged full-length HER2) (human) (UniProt P04626); experiment: co-IP; HEK293 cells transiently co-transfected with RANK-V5 and a HER2 form; lysis in 20 mM Tris-HCl pH 7.4, 137 mM NaCl, 2 mM EDTA, 10% glycerol, 1% NP-40; IP of the HER2 form with anti-FLAG or anti-HA (control IgG), protein A agarose; RANK detected with V5 antibody
[3] = molecular target: endogenous HER2 (SKBR3 cells) (human (endogenous in SKBR3)) (UniProt P04626); experiment: co-IP; endogenous proteins in SKBR3 cells; IP of HER2 with trastuzumab (Herceptin) or control IgG; RANK detected by Western blot

For “FLAG-HER2 (affinity-tagged full-length HER2) (from UniProt P04626 23-1255) (receptor)”, the binding [1] was “binds”.

B1: RANK-V5 (affinity-tagged full-length RANK) (receptor, UniProt Q9Y6Q6 30-616)
chain: IAPPCTSEKHYEHLGRCCNKCEPGKYMSSKCTTTSDSVCLPCGPDEYLDSWNEEDKCLLHKVCDTGKALVAVVAGNSTTPRRCACTAGYHWSQDCECCRRNTECAPGLGAQHPLQLNKDTVCKPCLAGYFSDAFSSTDKCRPWTNCTFLGKRVEHHGTEKSDAVCSSSLPARKPPNEPHVYLPGLIILLLFASVALVAAIIFGVCYRKKGKALTANLWHWINEACGRLSGDKESSGDSCVSTHTANFGQQGACEGVLLLTLEEKTFPEDMCYPDQGGVCQGTCVGGGPYAQGEDARMLSLVSKTEIEEDSFRQMPTEDEYMDRPSQPTDQLLFLTEPGSKSTPPFSEPLEVGENDSLSQCFTGTQSTVGSESCNCTEPLCRTDWTPMSSENYLQKEVDSGHCPHWAASPSPNWADVCTGCRNPPGEDCEPLVGSPKRGPLPQCAYGMGLPPEEEASRTEARDQPEDGADGRLPSSARAGAGSGSSPGGQSPASGNVTGNSNSTFISSGQVMNFKGDIIVVYVSQTSQEGAAAAAEPMGRPVQEETLARRDSFAGNGPRFPDPCGGPEGLREPEKASRPVQEQGGAKA
With B1 the binding [2] was “binds”.

B2: endogenous RANK (SKBR3 cells) (receptor, UniProt Q9Y6Q6 30-616)
chain: IAPPCTSEKHYEHLGRCCNKCEPGKYMSSKCTTTSDSVCLPCGPDEYLDSWNEEDKCLLHKVCDTGKALVAVVAGNSTTPRRCACTAGYHWSQDCECCRRNTECAPGLGAQHPLQLNKDTVCKPCLAGYFSDAFSSTDKCRPWTNCTFLGKRVEHHGTEKSDAVCSSSLPARKPPNEPHVYLPGLIILLLFASVALVAAIIFGVCYRKKGKALTANLWHWINEACGRLSGDKESSGDSCVSTHTANFGQQGACEGVLLLTLEEKTFPEDMCYPDQGGVCQGTCVGGGPYAQGEDARMLSLVSKTEIEEDSFRQMPTEDEYMDRPSQPTDQLLFLTEPGSKSTPPFSEPLEVGENDSLSQCFTGTQSTVGSESCNCTEPLCRTDWTPMSSENYLQKEVDSGHCPHWAASPSPNWADVCTGCRNPPGEDCEPLVGSPKRGPLPQCAYGMGLPPEEEASRTEARDQPEDGADGRLPSSARAGAGSGSSPGGQSPASGNVTGNSNSTFISSGQVMNFKGDIIVVYVSQTSQEGAAAAAEPMGRPVQEETLARRDSFAGNGPRFPDPCGGPEGLREPEKASRPVQEQGGAKA
B2 was tested, and the binding [3] was “binds”.
